Measurements reported in PubChem BioAssay AID504791 (Drosophila RNAi Screening Center, 2011)
Aim: 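Genes of the fly required for silencing by miRNA, siRNA or endo-siRNA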 (primary screen). Cells: Drosophila S2-derived reporter cells. Reagent: long dsRNA against Drosophila genes, about 150-250 ng dsRNA per well (siRNA assay); about 80-120 ng (miRNA assay). Timing: about 5 days (siRNA assay); about 4 days (miRNA assay). Conditions: copper sulfate induction of reporters: 25 µM (siRNA assay); 200 mM stated (miRNA assay), 1-2 days before reading. Measurement: 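Per-well ratio of Renilla over firefly light, expressed relative to that plate's average ratio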. Units: stable assay Renilla, run 1 in luminescence; stable assay firefly, run 1 in luminescence. Call rule: 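a well was a first-pass pick when its plate-scaled ratio rose above 1.5 (siRNA assay) or 1.6 (miRNA assay), or dropped below 0.6; a gene counted only if two separate dsRNAs agreed on retest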.
In all, the deposit lists about 23,000 reagents; below is a random part of those with a known target gene and a result. Of all reagents, 199 (0.86%) got an active call. 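Plate-scaled ratios behind the calls are not deposited; printed light signals are raw; many rows marked increased or decreased are still called inactive.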 Reagents against one gene are numbered here. Not stated in the record: the direction of the score.

mRRF2 (mitochondrial ribosome recycling factor 2) scored stable assay Renilla, run 1 = 6846; stable assay firefly, run 1 = 4.79e5; inactive.
Knock-down of CG30373 resulted in: stable assay Renilla, run 1 = 5563; stable assay firefly, run 1 = 4.34e5; inactive.
RpS28a (Ribosomal protein S28a) scored stable assay Renilla, run 1 = 6835; stable assay firefly, run 1 = 3.97e5; inactive.
For Gdi (GDP dissociation inhibitor), the values are stable assay Renilla, run 1 = 33230; stable assay firefly, run 1 = 1.27e6; inactive.
Zwilch gave stable assay Renilla, run 1 = 6343; stable assay firefly, run 1 = 3.31e5; inactive.
For narya, the values are stable assay Renilla, run 1 = 7618; stable assay firefly, run 1 = 4.91e5; inactive.
For AttD (Attacin-D), the entry reads stable assay Renilla, run 1 = 3868; stable assay firefly, run 1 = 3.71e5; inactive.
Depletion of Strump (Strumpellin) gave: stable assay Renilla, run 1 = 7685; stable assay firefly, run 1 = 2.86e5; inactive.
With knock-down of EMC3 (ER membrane protein complex subunit 3), the record shows stable assay Renilla, run 1 = 6902; stable assay firefly, run 1 = 5.27e5; inactive.
Naa30A (N(alpha)-acetyltransferase 30 A) #1 gave stable assay Renilla, run 1 = 8650; stable assay firefly, run 1 = 3.68e5; inactive.
For Naa30A (N(alpha)-acetyltransferase 30 A) #2 the deposit lists stable assay Renilla, run 1 = 1268; stable assay firefly, run 1 = 63240; inactive.
Silencing of NijC (Ninjurin C) gave: stable assay Renilla, run 1 = 6910; stable assay firefly, run 1 = 4.00e5; inactive.
CG5056 gave stable assay Renilla, run 1 = 7635; stable assay firefly, run 1 = 2.99e5; inactive.
Knock-down of CG4757 resulted in: stable assay Renilla, run 1 = 5482; stable assay firefly, run 1 = 3.46e5; inactive.
Hibch (3-hydroxyisobutyryl-CoA hydrolase) scored stable assay Renilla, run 1 = 7028; stable assay firefly, run 1 = 4.56e5; inactive.
CG11927 scored stable assay Renilla, run 1 = 10321; stable assay firefly, run 1 = 3.98e5; inactive.
tut (tumorous testis) gave stable assay Renilla, run 1 = 4827; stable assay firefly, run 1 = 4.97e5; inactive.
Against CG4390, the entry reads stable assay Renilla, run 1 = 10345; stable assay firefly, run 1 = 3.66e5; inactive.
After knock-down of SerRS (Seryl-tRNA synthetase) the results were stable assay Renilla, run 1 = 8071; stable assay firefly, run 1 = 1.79e5; inactive.

Quoted from the listing (5 entries):
CG4757 — stable assay Renilla, run 1: 5482; stable assay firefly, run 1: 3.46e5; activity call: inactive
Hibch (3-hydroxyisobutyryl-CoA hydrolase) — stable assay Renilla, run 1: 7028; stable assay firefly, run 1: 4.56e5; activity call: inactive
CG11927 — stable assay Renilla, run 1: 10321; stable assay firefly, run 1: 3.98e5; activity call: inactive
tut (tumorous testis) — stable assay Renilla, run 1: 4827; stable assay firefly, run 1: 4.97e5; activity call: inactive
CG4390 — stable assay Renilla, run 1: 10345; stable assay firefly, run 1: 3.66e5; activity call: inactive

Further reagents follow.
After knock-down of CG3505 the results were stable assay Renilla, run 1 = 8914; stable assay firefly, run 1 = 4.80e5; inactive.
Silencing of hoe1 (hoepel1) #1 came out at: stable assay Renilla, run 1 = 12875; stable assay firefly, run 1 = 6.13e5; inactive.
With knock-down of hoe1 (hoepel1) #2 the results were stable assay Renilla, run 1 = 7296; stable assay firefly, run 1 = 4.09e5; inactive.
Knock-down of hoe1 (hoepel1) #3 gave: miRNA reporter change reporter ratio lowered past the hit cutoff; stable assay Renilla, run 1 = 7590; stable assay firefly, run 1 = 3.95e5; active.
Silencing of CG4880 resulted in: stable assay Renilla, run 1 = 7910; stable assay firefly, run 1 = 4.33e5; inactive.
With knock-down of CG13323, the record shows stable assay Renilla, run 1 = 5806; stable assay firefly, run 1 = 3.93e5; inactive.
Silencing of CG5746 came out at: stable assay Renilla, run 1 = 7638; stable assay firefly, run 1 = 3.75e5; inactive.
Cwc25 showed stable assay Renilla, run 1 = 6990; stable assay firefly, run 1 = 4.61e5; inactive.
For CG3349, the entry reads stable assay Renilla, run 1 = 8125; stable assay firefly, run 1 = 3.17e5; inactive.
Depletion of CG7017 gave: stable assay Renilla, run 1 = 5886; stable assay firefly, run 1 = 4.07e5; inactive.
For Arl6IP1 (ADP-ribosylation factor-like 6 interacting protein 1) the deposit lists stable assay Renilla, run 1 = 7887; stable assay firefly, run 1 = 4.39e5; inactive.
dec (defective chorion) #1 showed stable assay Renilla, run 1 = 5979; stable assay firefly, run 1 = 4.12e5; inactive.
After knock-down of dec (defective chorion) #2 the results were stable assay Renilla, run 1 = 8910; stable assay firefly, run 1 = 4.50e5; inactive.
Depletion of DIP1 (DISCO Interacting Protein 1) resulted in: stable siRNA reporter change reporter ratio raised past the hit cutoff; stable assay Renilla, run 1 = 1416; stable assay firefly, run 1 = 60479; inactive.
Depletion of Desat2 (Desaturase 2) resulted in: stable assay Renilla, run 1 = 6251; stable assay firefly, run 1 = 3.23e5; inactive.
Silencing of lncRNA:noe (long non-coding RNA:noe) gave: miRNA reporter change reporter ratio raised past the hit cutoff; stable assay Renilla, run 1 = 4303; stable assay firefly, run 1 = 3.92e5; active.
